Results taken from the supplement of paper PMC10849652.
This is one part of the list.

Sequences of proteins named here, by UniProt entry; tags and fusion partners are left off. A change or cut given only in a name is not applied to a line headed by its entry.
UniProt Q9H867: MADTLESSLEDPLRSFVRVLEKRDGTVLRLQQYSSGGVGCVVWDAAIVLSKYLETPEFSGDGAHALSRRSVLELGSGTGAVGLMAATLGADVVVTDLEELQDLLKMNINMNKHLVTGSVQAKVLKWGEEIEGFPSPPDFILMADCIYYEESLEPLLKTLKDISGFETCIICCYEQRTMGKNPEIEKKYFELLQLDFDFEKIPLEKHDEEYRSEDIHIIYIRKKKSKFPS
UniProt Q9Y4P8: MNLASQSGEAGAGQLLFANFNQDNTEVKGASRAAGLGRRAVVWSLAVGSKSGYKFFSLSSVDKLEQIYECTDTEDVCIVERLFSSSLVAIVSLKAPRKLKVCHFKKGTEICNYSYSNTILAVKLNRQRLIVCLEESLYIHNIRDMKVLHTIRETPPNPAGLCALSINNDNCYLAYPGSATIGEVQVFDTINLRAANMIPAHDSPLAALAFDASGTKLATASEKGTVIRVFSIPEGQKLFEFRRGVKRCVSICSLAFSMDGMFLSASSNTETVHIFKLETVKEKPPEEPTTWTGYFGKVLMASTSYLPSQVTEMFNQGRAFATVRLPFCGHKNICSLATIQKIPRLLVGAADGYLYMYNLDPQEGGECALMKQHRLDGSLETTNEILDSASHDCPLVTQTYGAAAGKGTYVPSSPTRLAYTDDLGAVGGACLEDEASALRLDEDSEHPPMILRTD
UniProt Q86VN1: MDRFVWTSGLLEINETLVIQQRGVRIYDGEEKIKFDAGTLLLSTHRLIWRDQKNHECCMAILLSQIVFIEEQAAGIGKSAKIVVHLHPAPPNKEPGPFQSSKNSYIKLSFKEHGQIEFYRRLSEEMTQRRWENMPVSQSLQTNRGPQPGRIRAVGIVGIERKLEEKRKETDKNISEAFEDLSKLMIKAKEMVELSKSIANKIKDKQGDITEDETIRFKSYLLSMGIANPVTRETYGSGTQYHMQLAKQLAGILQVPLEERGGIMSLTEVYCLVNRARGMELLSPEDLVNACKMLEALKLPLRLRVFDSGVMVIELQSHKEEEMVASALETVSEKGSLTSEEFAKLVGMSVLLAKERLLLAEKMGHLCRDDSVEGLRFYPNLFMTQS
UniProt Q562E7: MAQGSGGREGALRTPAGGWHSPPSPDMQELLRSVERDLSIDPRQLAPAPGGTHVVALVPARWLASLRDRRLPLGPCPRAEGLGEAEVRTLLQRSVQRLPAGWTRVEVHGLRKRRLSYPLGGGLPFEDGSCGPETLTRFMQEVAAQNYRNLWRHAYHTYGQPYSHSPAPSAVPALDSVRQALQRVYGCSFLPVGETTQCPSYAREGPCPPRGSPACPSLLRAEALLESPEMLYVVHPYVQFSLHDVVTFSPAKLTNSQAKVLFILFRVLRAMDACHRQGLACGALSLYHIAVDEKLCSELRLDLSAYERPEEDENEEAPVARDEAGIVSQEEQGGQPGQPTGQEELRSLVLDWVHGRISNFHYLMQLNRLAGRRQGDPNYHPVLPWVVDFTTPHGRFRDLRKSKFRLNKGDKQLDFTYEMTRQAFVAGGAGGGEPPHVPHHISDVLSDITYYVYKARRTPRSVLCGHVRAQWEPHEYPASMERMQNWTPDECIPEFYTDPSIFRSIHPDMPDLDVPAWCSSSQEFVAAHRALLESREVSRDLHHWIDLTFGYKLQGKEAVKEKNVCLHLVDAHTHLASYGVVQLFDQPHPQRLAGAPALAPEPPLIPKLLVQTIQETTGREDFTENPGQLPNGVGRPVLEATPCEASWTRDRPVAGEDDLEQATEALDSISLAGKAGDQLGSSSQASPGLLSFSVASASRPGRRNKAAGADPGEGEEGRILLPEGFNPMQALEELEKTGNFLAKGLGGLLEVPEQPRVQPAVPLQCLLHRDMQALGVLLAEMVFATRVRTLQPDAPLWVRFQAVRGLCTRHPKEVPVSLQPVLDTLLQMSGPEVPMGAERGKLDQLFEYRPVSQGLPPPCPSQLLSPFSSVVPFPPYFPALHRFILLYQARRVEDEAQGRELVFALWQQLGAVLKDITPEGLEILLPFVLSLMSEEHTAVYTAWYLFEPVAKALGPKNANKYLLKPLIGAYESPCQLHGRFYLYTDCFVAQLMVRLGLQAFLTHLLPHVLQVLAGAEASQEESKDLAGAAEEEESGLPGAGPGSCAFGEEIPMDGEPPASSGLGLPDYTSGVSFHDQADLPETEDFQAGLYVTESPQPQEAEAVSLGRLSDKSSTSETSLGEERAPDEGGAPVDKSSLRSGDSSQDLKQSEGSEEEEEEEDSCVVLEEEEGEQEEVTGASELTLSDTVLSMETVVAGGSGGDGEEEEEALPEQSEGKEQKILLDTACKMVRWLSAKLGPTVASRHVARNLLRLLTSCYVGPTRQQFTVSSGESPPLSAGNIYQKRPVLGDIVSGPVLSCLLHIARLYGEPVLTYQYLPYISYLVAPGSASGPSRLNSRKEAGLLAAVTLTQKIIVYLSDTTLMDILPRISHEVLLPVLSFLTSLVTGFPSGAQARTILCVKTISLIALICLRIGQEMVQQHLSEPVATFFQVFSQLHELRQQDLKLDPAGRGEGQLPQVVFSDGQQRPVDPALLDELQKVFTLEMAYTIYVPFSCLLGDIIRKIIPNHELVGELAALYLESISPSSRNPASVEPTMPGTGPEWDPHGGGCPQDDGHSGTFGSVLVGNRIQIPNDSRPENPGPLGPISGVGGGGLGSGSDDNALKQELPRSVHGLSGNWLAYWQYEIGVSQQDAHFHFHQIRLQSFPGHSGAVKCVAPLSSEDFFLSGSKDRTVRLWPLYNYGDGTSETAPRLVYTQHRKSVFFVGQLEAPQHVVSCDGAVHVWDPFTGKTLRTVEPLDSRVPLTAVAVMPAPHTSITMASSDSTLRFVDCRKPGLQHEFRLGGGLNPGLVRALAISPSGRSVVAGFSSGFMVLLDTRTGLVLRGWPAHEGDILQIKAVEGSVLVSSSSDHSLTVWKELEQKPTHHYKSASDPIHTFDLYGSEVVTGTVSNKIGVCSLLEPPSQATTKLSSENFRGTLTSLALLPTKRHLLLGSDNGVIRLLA
UniProt Q96JH7: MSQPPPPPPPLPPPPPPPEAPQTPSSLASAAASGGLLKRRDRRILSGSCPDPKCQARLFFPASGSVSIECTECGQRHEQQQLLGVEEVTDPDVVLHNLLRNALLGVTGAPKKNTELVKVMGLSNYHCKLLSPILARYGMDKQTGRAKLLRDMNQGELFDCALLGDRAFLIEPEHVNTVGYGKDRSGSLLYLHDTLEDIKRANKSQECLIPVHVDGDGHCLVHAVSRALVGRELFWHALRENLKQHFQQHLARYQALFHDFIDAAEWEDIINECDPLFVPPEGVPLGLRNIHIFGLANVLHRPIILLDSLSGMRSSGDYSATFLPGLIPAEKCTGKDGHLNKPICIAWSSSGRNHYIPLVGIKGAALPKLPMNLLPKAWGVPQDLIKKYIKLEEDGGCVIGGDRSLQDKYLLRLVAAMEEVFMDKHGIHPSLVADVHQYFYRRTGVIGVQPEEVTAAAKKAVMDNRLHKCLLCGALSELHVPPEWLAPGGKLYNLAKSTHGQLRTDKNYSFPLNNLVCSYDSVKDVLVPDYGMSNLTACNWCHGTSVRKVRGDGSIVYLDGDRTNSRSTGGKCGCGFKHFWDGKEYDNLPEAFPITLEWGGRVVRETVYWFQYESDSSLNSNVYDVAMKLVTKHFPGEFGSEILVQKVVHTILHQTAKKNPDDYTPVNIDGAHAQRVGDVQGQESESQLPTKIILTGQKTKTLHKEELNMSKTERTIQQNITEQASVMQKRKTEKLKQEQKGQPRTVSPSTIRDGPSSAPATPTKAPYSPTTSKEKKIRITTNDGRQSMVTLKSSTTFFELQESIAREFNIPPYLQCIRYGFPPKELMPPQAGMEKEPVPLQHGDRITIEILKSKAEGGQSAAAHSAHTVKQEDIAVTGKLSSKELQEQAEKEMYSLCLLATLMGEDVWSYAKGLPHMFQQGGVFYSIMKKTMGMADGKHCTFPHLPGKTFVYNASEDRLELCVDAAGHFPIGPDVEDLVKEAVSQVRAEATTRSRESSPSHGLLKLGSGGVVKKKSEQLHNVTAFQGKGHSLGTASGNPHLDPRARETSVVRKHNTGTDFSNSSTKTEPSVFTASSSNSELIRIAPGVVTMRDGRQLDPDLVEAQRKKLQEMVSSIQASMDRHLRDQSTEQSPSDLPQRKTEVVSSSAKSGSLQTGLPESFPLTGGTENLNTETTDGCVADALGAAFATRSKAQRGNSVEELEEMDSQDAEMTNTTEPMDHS
UniProt Q3ZAQ7: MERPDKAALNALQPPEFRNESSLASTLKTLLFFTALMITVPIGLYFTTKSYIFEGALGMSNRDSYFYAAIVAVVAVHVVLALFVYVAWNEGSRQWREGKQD
UniProt O95497: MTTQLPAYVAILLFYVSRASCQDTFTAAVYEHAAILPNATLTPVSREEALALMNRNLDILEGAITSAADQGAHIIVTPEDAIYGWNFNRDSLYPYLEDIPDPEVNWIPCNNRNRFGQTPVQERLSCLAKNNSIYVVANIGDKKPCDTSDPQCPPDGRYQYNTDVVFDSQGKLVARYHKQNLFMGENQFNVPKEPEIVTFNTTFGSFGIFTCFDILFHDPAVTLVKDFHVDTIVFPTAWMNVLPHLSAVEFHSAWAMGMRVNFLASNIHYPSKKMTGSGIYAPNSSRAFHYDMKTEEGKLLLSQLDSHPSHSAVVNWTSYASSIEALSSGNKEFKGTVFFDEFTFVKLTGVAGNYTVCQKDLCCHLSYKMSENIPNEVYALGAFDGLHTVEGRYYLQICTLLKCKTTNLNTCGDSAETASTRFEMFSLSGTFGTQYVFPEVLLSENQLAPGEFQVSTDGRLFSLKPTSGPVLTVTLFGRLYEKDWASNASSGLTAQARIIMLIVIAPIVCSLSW
UniProt Q9HBM0: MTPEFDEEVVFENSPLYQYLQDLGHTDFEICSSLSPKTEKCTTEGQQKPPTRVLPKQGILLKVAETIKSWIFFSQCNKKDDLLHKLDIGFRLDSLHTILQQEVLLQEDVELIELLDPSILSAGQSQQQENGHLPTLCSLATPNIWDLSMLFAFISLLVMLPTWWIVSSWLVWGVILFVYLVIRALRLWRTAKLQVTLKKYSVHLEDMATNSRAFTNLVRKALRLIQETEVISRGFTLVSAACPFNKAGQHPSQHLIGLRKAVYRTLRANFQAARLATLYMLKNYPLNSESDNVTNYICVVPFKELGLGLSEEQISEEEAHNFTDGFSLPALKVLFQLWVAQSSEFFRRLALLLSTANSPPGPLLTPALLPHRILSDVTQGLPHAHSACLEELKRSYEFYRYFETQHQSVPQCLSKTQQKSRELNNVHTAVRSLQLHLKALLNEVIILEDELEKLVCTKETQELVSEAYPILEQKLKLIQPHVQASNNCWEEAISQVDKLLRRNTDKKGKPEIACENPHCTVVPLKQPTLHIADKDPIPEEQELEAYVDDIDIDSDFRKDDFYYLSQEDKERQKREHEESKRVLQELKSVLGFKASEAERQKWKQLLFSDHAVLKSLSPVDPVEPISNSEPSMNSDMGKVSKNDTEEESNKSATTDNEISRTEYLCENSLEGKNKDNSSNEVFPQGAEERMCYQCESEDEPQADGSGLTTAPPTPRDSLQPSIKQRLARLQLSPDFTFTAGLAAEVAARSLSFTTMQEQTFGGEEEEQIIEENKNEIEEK
UniProt Q9H270: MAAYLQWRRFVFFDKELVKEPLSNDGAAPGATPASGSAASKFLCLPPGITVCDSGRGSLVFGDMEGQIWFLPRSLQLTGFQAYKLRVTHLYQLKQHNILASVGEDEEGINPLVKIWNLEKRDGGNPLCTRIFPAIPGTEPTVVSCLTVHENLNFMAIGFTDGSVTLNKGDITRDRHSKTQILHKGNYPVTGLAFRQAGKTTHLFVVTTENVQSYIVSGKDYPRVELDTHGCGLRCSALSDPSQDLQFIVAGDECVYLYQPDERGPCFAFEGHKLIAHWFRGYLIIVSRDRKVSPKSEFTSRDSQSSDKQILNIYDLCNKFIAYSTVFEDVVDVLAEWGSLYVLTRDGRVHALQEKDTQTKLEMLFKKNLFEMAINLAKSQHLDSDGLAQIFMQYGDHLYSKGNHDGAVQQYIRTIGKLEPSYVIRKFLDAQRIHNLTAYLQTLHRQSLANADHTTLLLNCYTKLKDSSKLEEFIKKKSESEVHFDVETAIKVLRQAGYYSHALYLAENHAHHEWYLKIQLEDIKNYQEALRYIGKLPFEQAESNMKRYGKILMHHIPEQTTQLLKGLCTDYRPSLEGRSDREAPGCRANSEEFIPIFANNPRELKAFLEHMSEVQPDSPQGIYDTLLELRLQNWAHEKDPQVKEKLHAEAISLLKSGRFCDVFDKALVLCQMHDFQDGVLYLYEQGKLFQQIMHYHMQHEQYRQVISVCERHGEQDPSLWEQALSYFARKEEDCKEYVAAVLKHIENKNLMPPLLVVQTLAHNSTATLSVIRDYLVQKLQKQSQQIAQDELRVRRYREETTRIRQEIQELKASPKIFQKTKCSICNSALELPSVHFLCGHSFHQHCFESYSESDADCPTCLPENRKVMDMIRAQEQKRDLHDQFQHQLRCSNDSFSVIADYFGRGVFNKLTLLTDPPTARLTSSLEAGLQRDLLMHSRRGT

How the values were obtained:
Assay in all cases: log2 fold change, soluble protein after heating vs DMSO (PISA); higher = thermal stabilisation; K562 cells, 10 uM, 30 min; active = over 0.2 and 3.5 SD of the protein, either way, in both replicates (recomputed)
[1] = compound: C1=CC=C(C=C1)[C@H](COC2=CC3=C(C=C2)NC(=O)N3)NC(=O)C4=CC=CN(C4=O)CC5=CC(=C(C=C5)F)F
Outline: (§1)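 K562 cells at 2×10^6 cells/mL were given 10 μM compound for 30 min. Aliquots then went through 3 min of heating across 48°C-58°C, were pooled, and were extracted in PBS with 0.5% NP-40 at 4°C, and the supernatant after 21,000xg for 90 min was quantified by TMTpro 16plex LC-MS/MS with channel sums equalised. Thermal stability relative to control samples, from duplicates, is given as log2 fold change.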

[2] = compound: CC1=C(SC2=C1C(=N[C@H](C3=NN=C(N32)C)CC(=O)N)C4=CC=C(C=C4)Cl)C
Outline: as §1

[3] = compound: CC1=C2C(=CC=C1)N=C(N(C2=O)C3=CC=CC=C3C)CN4C=NC5=C(N=CN=C54)N
Outline: as §1

[4] = compound: Cc1sc2c(c1C)C(c1ccc(Cl)cc1)=N[C@@H](CC(=O)OC(C)(C)C)c1nnc(C)n1-2
Outline: as §1

[5] = compound: c1ccc([C@@H]2C[C@H]2NC2CCNCC2)cc1
Outline: as §1

Measured: log2 fold change

VDAC1 (UniProt P21796)
inactive: [1] 0.047 | [2] 0.008 | [3] -0.024 | [4] -0.007 | [5] 0.026

VHL (UniProt P40337)
inactive: [2] 0.006 | [5] 0.031

VCPKMT (UniProt Q9H867)
inactive: [4] 0.036

WIPI1 (UniProt Q5MNZ9)
inactive: [1] 0.036 | [2] 0.038 | [4] -0.034 | [5] 0.07

WIPI2 isoform 6 (UniProt Q9Y4P8)
inactive: [1] -0.159 | [2] 0.199 | [5] -0.005

VIRMA (UniProt Q69YN4)
inactive: [1] -0.107 | [2] 0.038 | [5] 0.039

WDR45B (UniProt Q5MNZ6)
inactive: [1] 0.019 | [2] 0.087 | [3] 0.015 | [4] -0.072 | [5] 0.023

WDSUB1 (UniProt Q8N9V3)
inactive: [1] -0.032 | [2] 0.021 | [3] 0.055 | [4] -0.011 | [5] 0.035

VEZF1 (UniProt Q14119)
inactive: [1] 0.088 | [2] -0.218 | [3] 0.005 | [5] 0.245

VLDLR (UniProt P98155)
inactive: [4] 0.019

WDR46, A0A0G2JJL1
inactive: [1] 0.129 | [3] -0.546 | [4] 0.303

WDR24 (UniProt Q96S15)
inactive: [2] 0.101 | [4] 0.061 | [5] -0.127

VWA5A (UniProt O00534)
inactive: [1] 0.018 | [2] 0 | [3] 0.051 | [4] -0.036 | [5] -0.116

6 successive entries out of the list so far:
WDR45B (UniProt Q5MNZ6)
inactive: [1] 0.019 | [2] 0.087 | [3] 0.015 | [4] -0.072 | [5] 0.023

WDSUB1 (UniProt Q8N9V3)
inactive: [1] -0.032 | [2] 0.021 | [3] 0.055 | [4] -0.011 | [5] 0.035

VEZF1 (UniProt Q14119)
inactive: [1] 0.088 | [2] -0.218 | [3] 0.005 | [5] 0.245

VLDLR (UniProt P98155)
inactive: [4] 0.019

WDR46, A0A0G2JJL1
inactive: [1] 0.129 | [3] -0.546 | [4] 0.303

WDR24 (UniProt Q96S15)
inactive: [2] 0.101 | [4] 0.061 | [5] -0.127

Continued.

VPS36 (UniProt Q86VN1)
inactive: [1] -0.036 | [2] 0.026 | [3] 0.036 | [4] 0.014 | [5] -0.026

VPS37C (UniProt A5D8V6)
inactive: [1] -0.062 | [2] 0.037 | [3] 0.074 | [4] -0.038 | [5] 0.038

VPS54 (UniProt Q9P1Q0)
inactive: [3] 0.081 | [4] -0.086

WDFY2 (UniProt Q96P53)
inactive: [3] -0.088 | [4] 0.101

VDAC1 (UniProt C9JI87)
inactive: [1] -0.132 | [2] -0.004 | [5] 0.137

WWOX (UniProt Q9NZC7)
inactive: [2] -0.064 | [4] 0.566 | [5] -0.09

WDR81 (UniProt Q562E7)
inactive: [1] -0.132 | [4] 0.122

VCPIP1 (UniProt Q96JH7)
inactive: [3] -0.012

VPS35, A0A1W2PP10
inactive: [1] -0.043 | [3] 0.106 | [4] 0.097

VMA21 isoform 2 (UniProt Q3ZAQ7)
inactive: [1] 0.001 | [2] -0.106 | [4] 0.013 | [5] 0

VNN1 (UniProt O95497)
inactive: [2] 0.056 | [5] -0.02

WDR12 (UniProt Q9GZL7)
inactive: [1] 0.04 | [2] 0.051 | [3] 0.036 | [4] 0.01 | [5] 0.038

VPS39 (UniProt Q96JC1)
inactive: [1] -0.087 | [2] 0.018 | [3] 0.071 | [4] -0.009 | [5] -0.052

VEZT (UniProt Q9HBM0)
inactive: [1] -0.049 | [2] -0.15 | [3] 0.189 | [4] 0.076 | [5] 0.184

VEGFA (UniProt H0YBI8)
inactive: [1] 0.039 | [3] 0.051 | [4] -0.13

VMA21 (UniProt Q3ZAQ7)
inactive: [1] 0.063 | [2] 0.005 | [3] 0.031 | [5] 0.008

VPS11 (UniProt Q9H270)
inactive: [1] -0.089 | [2] 0.014 | [3] 0.118 | [4] -0.001 | [5] -0.047

WARS1 (UniProt G3V277)
inactive: [1] -0.075 | [3] 0.283 | [4] 0.076

WDR20 isoform 7 (UniProt Q8TBZ3)
inactive: [1] 0.166 | [2] 0.004 | [3] -0.014 | [4] 0.006 | [5] -0.003
